Our source for the log2 fold change values is the supplement of paper PMC10849652.

The chains behind the UniProt entries cited, without tags or fusion partners. Where a name states a change or a piece, a line headed by the entry shows the natural chain unless it says otherwise.
UniProt Q9BTE3: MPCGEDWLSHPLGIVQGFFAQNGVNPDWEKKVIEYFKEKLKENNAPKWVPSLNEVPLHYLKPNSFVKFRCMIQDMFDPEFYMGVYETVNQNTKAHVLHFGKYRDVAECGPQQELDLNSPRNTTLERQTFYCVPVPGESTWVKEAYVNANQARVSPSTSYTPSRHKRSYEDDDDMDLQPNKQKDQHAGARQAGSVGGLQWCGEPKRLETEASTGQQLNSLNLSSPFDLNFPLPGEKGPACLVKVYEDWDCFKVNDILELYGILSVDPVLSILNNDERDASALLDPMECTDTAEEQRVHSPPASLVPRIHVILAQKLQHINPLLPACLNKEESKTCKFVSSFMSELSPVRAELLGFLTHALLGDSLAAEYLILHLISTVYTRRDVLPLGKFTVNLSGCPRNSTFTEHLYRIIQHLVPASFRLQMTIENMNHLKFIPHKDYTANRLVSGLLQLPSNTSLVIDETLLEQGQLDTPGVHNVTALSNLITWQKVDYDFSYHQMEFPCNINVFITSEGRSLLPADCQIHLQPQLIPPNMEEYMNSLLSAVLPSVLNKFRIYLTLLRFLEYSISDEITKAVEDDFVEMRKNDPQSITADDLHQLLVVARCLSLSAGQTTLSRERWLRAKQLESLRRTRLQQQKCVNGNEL
UniProt Q9H944: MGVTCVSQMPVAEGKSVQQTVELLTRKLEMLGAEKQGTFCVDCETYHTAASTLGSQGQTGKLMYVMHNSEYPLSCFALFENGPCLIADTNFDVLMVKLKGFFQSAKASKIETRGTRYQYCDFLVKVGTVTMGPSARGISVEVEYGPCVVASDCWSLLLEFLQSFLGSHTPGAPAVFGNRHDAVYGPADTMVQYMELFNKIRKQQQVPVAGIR
UniProt Q9NRN9: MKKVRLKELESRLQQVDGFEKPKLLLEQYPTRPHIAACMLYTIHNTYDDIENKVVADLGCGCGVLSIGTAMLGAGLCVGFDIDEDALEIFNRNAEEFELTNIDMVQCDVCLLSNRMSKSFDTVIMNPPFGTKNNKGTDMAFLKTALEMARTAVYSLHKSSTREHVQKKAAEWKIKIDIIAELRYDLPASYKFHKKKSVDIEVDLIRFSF
UniProt Q9HCE5: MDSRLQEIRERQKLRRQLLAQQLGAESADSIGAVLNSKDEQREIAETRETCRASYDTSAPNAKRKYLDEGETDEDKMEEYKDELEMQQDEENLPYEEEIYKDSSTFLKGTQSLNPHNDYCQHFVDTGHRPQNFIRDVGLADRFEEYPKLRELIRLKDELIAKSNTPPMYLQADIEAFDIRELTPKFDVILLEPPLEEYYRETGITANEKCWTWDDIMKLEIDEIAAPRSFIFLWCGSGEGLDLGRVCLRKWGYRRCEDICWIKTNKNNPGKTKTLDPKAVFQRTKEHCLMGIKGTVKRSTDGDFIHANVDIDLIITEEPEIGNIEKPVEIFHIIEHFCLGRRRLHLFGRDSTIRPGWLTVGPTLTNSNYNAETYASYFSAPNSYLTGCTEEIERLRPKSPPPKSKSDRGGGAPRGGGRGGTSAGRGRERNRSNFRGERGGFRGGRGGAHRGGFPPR
UniProt Q9BV79: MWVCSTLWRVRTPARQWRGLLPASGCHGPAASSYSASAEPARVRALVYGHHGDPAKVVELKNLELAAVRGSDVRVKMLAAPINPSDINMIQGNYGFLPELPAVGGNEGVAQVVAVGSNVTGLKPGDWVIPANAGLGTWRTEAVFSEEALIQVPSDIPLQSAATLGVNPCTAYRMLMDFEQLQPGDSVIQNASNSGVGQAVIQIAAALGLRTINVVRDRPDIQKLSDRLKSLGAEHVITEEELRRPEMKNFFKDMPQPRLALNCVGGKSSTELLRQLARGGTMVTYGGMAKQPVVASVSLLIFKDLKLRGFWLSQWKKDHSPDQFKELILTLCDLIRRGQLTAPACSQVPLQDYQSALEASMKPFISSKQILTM
UniProt P23368: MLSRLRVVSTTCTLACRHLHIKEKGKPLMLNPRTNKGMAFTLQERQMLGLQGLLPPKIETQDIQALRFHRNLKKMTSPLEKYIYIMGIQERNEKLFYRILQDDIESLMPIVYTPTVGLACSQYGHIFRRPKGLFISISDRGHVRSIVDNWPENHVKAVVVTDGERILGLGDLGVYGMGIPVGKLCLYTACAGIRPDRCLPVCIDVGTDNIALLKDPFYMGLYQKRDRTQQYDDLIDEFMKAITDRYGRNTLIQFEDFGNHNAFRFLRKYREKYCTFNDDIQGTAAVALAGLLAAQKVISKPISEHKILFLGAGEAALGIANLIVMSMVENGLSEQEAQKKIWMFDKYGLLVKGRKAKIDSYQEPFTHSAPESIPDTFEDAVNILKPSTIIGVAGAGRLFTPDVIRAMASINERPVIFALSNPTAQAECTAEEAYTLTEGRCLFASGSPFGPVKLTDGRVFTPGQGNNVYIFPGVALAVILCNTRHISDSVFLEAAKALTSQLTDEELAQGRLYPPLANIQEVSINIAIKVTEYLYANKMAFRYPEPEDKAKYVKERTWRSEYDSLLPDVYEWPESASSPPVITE
UniProt Q9NPJ6: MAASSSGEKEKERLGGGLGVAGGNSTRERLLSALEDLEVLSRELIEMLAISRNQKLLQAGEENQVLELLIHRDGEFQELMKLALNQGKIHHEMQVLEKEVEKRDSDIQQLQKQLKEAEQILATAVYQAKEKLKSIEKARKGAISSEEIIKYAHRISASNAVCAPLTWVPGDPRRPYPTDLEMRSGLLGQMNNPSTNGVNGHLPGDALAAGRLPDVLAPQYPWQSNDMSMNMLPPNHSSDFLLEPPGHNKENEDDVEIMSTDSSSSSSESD
UniProt P50579: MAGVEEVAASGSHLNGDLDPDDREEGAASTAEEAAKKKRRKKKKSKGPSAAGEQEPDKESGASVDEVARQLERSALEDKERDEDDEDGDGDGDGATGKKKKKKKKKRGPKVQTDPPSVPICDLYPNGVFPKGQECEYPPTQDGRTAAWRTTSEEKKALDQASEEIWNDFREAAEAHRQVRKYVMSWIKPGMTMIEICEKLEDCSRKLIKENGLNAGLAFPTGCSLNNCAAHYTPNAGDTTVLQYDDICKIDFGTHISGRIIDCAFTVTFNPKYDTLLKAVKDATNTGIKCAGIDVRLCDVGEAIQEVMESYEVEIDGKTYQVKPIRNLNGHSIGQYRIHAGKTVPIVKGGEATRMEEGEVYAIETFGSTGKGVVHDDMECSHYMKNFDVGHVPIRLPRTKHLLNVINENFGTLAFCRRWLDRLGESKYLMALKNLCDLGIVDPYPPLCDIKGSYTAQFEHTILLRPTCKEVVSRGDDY
UniProt Q9UBB5, whole entry, looked up: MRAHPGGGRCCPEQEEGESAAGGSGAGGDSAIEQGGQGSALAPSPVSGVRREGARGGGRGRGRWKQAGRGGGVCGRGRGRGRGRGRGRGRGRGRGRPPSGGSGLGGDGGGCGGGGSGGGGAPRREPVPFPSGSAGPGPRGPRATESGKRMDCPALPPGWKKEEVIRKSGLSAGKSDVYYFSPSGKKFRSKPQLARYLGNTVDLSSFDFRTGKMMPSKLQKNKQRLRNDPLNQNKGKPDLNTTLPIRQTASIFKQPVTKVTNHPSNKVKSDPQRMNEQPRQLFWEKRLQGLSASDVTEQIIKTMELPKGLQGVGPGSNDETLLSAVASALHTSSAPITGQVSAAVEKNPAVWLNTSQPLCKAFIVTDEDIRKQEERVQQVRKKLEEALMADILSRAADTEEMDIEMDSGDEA
UniProt Q96RN5: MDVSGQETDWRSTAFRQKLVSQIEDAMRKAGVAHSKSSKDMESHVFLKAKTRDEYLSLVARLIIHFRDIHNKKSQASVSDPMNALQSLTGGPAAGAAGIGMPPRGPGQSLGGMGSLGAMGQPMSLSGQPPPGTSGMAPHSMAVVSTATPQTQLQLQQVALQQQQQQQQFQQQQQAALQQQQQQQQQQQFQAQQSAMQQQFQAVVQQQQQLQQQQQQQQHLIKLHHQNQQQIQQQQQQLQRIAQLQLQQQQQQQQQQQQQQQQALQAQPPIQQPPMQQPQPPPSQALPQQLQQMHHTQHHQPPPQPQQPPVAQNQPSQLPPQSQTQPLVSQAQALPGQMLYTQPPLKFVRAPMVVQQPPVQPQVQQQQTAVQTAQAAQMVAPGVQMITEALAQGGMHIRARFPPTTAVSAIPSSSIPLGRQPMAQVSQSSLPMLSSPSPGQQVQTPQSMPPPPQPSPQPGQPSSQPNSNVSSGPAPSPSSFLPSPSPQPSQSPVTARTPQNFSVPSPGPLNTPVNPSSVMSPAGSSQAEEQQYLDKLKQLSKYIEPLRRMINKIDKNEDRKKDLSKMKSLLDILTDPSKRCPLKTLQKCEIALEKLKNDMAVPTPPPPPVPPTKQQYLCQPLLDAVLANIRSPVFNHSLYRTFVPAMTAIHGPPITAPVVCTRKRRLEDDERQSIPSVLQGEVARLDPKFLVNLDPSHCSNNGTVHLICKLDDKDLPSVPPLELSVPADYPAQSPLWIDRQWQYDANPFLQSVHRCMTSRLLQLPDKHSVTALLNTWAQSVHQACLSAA
UniProt Q8NI22: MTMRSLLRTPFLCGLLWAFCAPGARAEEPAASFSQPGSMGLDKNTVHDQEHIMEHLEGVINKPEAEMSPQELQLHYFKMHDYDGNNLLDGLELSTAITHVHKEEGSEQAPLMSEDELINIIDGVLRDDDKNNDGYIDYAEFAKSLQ
UniProt P49736, whole entry, looked up: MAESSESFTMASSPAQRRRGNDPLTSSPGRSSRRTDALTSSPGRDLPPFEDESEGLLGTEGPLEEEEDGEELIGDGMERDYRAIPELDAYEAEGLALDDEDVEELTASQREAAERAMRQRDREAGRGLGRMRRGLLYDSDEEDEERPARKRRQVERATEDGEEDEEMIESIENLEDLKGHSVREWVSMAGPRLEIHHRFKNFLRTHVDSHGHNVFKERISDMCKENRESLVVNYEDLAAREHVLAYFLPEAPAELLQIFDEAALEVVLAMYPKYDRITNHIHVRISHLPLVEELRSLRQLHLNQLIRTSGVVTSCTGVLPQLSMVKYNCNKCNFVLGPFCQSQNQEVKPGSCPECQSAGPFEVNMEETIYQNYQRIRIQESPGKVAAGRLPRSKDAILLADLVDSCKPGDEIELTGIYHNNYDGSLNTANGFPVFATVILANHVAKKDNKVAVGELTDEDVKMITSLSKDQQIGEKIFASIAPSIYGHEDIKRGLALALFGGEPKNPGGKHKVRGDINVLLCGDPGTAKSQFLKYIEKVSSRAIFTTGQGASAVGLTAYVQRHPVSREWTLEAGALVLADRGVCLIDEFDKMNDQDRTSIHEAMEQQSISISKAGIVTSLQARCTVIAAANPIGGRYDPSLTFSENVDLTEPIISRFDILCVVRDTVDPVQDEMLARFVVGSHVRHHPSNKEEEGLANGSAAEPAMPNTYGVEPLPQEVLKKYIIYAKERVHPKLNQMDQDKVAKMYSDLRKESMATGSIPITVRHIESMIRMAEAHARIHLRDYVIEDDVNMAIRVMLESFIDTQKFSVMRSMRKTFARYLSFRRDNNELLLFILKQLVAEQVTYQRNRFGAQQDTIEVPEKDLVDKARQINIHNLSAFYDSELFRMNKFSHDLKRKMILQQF
UniProt P33991: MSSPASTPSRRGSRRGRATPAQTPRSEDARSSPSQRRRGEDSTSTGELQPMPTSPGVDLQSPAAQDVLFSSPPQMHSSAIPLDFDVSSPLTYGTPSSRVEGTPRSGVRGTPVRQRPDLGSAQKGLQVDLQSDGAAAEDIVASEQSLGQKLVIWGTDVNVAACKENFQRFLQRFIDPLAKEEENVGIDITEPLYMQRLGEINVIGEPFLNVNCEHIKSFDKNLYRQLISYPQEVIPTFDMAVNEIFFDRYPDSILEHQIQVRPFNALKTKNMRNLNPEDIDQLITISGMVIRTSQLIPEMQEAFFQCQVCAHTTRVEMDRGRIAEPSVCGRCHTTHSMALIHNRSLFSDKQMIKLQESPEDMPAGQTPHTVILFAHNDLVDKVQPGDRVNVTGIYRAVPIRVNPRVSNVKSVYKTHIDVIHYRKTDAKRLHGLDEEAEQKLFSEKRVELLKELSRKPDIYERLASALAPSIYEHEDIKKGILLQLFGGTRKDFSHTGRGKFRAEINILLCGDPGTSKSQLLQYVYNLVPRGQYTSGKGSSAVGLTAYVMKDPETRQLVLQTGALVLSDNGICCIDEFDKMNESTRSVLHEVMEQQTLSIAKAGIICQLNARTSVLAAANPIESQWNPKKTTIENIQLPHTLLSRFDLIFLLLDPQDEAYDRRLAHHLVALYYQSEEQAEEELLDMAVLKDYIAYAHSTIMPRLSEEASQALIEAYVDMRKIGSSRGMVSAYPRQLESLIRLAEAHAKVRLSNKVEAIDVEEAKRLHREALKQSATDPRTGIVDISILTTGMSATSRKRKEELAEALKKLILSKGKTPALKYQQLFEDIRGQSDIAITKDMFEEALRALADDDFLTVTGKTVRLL
UniProt Q14696: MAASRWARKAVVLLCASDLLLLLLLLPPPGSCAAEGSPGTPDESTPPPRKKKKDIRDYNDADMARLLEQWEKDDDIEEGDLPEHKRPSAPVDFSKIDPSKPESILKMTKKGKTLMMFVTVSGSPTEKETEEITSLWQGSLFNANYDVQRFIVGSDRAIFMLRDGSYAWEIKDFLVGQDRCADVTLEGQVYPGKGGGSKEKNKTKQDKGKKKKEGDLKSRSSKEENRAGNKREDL

The other results are listed elsewhere or left out.

Compound in this test: Cc1ccc(NC(=O)c2ccc(CN3CC[C@H](N(C)C)C3)c(C(F)(F)F)c2)cc1Nc1nccc(-c2cncnc2)n1 [bafetinib]
Kind of test: log2 fold change, soluble protein after heating vs DMSO (PISA); higher = thermal stabilisation; K562 lysate, 10 uM; active = over 0.2 and 3.5 SD of the protein, either way, in both replicates (recomputed). In a few lines:
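Soluble protein was defined as the supernatant remaining after 21,000xg for 90 min, following pooling of heated aliquots and adjustment to 0.5% NP-40 at 4°C. Before that, crude K562 extract at 1 mg/mL protein in PBS pH 7.4 with 1 mM MgCl2 was treated with 10 μM compound for 30 min and heated for 3 min across 48°C-58°C. Quantification used TMTpro 16plex LC-MS/MS with channel sums equalised, and values are log-two fold changes in thermal stability relative to solvent controls from duplicates.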
Take MCMBP (UniProt Q9BTE3): the log2 fold change is inactive: -0.007.
Regarding MED20 (UniProt Q9H944), the log2 fold change is inactive: -0.099.
For METTL5 (UniProt Q9NRN9), the log2 fold change was inactive: 0.018.
For MDH2 (UniProt P40926) the value was inactive: 0.134.
For METTL14 (UniProt Q9HCE5) the value was inactive: -0.03.
Consider MECR (UniProt Q9BV79), for which the log2 fold change is inactive: -0.005.
With METAP1D (UniProt Q6UB28), the log2 fold change is inactive: -0.025.
On to MEF2A (UniProt Q02078), for which the log2 fold change is inactive: -0.071.
In the case of MFSD10 (UniProt Q14728) it was inactive: -0.074; in that of MCL1 (UniProt Q07820), inactive: -0.071.
In the case of MCM6 (UniProt Q14566) it was inactive: -0.026; in that of MED7 (UniProt O43513), inactive: -0.106.
Consider MFSD4B (UniProt Q5TF39), for which the log2 fold change is inactive: -0.039.
For ME2 (UniProt P23368), the log2 fold change was inactive: 0.006.
Consider METTL2A (UniProt Q96IZ6), for which the log2 fold change is inactive: -0.017.
Regarding MFN2 (UniProt O95140), the log2 fold change is inactive: -0.042.
In the case of MED8 isoform 2 (UniProt Q96G25), the log2 fold change is inactive: -0.031.
As for MED4 (UniProt Q9NPJ6), the log2 fold change was inactive: -0.009.
For the target METTL16 (UniProt Q86W50), the log2 fold change is inactive: 0.027.
In the case of MEF2C isoform 5 (UniProt Q06413) it was inactive: -0.066; in that of MCUR1 (UniProt Q96AQ8), inactive: 0.008.
As to METAP2 (UniProt P50579), the log2 fold change is inactive: 0.047.
Consider MBD3 (UniProt O95983), for which the log2 fold change is inactive: -0.034.
For MBD2 (UniProt Q9UBB5), the log2 fold change was inactive: -0.006.
In the case of MED15 (UniProt Q96RN5) it was inactive: -0.067; in that of MCFD2 (UniProt Q8NI22), inactive: 0.132.
For MCM2 (UniProt P49736) the value was inactive: -0.037; for MEAF6 isoform 3 (UniProt Q9HAF1), inactive: 0.013; for ME3 (UniProt Q16798), inactive: -0.054.
For the target MECP2 isoform 2 (UniProt P51608), the log2 fold change was inactive: 0.032.
In the case of MBOAT2 (UniProt Q6ZWT7) it was inactive: -0.049; in that of MCM4 (UniProt P33991), inactive: -0.066; in that of MEA1 (UniProt Q16626), inactive: 0.154.
As to MFAP1 (UniProt P55081), the log2 fold change is inactive: -0.033.
Regarding MED30 (UniProt Q96HR3), the log2 fold change is inactive: 0.025.
Take METTL3 (UniProt Q86U44): the log2 fold change was inactive: -0.031.
Take MCRIP1 (UniProt I3L4Q0): the log2 fold change is inactive: -0.091.
In the case of MCRIP2 (UniProt Q9BUT9) it was inactive: -0.099.
For MEF2D (UniProt Q14814) the value was inactive: 0.053; for MESD (UniProt Q14696), inactive: 0.009.
